Experimental data from PMC7819943, “Rice protein-binding microarrays: a tool to detect cis-acting elements near promoter regions in rice”.
The other results are listed elsewhere or left out.

By UniProt entry, the sequences of proteins in these tests, tags left out.
UniProt Q0JBA9, entry or part of it: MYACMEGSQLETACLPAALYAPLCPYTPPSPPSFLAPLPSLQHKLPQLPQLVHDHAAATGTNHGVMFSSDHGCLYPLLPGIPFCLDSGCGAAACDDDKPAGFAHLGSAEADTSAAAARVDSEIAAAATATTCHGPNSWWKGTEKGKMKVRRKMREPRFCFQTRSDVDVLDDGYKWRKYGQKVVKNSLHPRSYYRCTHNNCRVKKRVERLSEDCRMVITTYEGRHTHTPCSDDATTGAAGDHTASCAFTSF

Biological target: OsWRKY34 (Oryza sativa, UniProt Q0JBA9 1-250)
Experiment: protein-binding microarray (RPBM); PBS, 2% BSA, 51.3 ng/ul salmon testes DNA, 50 uM zinc acetate, 200 nM TF, 25 C, 1 h; high values mean tight binding
Conditions: protein: recombinant; tags: N-terminal polyhistidine and DsRed monomer fusion (pET32a); label: CyDye5-dUTP incorporated in the synthesized complementary strand; 3' TTTTT single-stranded linker to array surface; dsDNA, one strand shown
Method in brief: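 Polyhistidine-tagged DsRed fusions of transcription factors, joined at the N-terminus, were expressed in E. coli BL21-CodonPlus and isolated on Ni–NTA. They were incubated at 200 nM for 1 h at 25 °C on a custom Agilent array, double-stranded and BSA-blocked, in PBS with 2% BSA, salmon testes DNA and 50 µM zinc acetate. The binding signal is per-feature fluorescence intensity (arbitrary units) read on an Axon 4000B scanner after washing.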

| Sequence | binding signal |
| --- | --- |
| TATATATATATATATATATATAGACACACACACGCCAATCCGGAGTCACCTAGTGCAG | 9920 fluorescence intensity (a.u.) |
| GTTCAGTTGTGTTGTGATCTTCTTCTGTGTTCCTCAGCTGCGGAGTCACCTAGTGCAG | 12000 fluorescence intensity (a.u.) |
| TTTTAATTAATCGTCACCAGATTGTTTTTTTTCTTTCTTTCGGAGTCACCTAGTGCAG | 12400 fluorescence intensity (a.u.) |
| CCGCCGCCTCGTCCGCGACCGCCGCCGTGCGCGCCTCCGCCGGAGTCACCTAGTGCAG | 10300 fluorescence intensity (a.u.) |
| AGACCCTTTTTTTTTTCTTTGCTTCGAGCCGAAGGAGACGCGGAGTCACCTAGTGCAG | 11200 fluorescence intensity (a.u.) |
| CGATCCGTCCATCACAACATCGGACGGCCCACGTTACACCCGGAGTCACCTAGTGCAG | 9020 fluorescence intensity (a.u.) |
| CTCACTTTCCTCGTTTTCCGTACACATGCTTACCAAATTGCGGAGTCACCTAGTGCAG | 8220 fluorescence intensity (a.u.) |
| AGAATGGTCTTATATGTTGTGTAGTGGTGTGTGGGCGTGTCGGAGTCACCTAGTGCAG | 8170 fluorescence intensity (a.u.) |
| TCATTCATAATTCATCCATTCATTCGGTCAACCGGTCACACGGAGTCACCTAGTGCAG | 8120 fluorescence intensity (a.u.) |
| TCATAATTGGATGGCATTGTACTGTGATTTGTTTGTGTTGCGGAGTCACCTAGTGCAG | 12000 fluorescence intensity (a.u.) |
| GTCCTTTTCTAATGATTCACCTTCACTTGATCCATCTGAGCGGAGTCACCTAGTGCAG | 9050 fluorescence intensity (a.u.) |
| TCACTGGATATTTCCACTGCATCATGGTCTACAATCATATCGGAGTCACCTAGTGCAG | 11700 fluorescence intensity (a.u.) |
| ACCACTTTTGTCGTTTTTGTTTCCCTATTTTTTTCGAAATCGGAGTCACCTAGTGCAG | 8540 fluorescence intensity (a.u.) |
| TTCTTTCCCATGGTGCTTCTTTTTTTCAAGACATTTCTCTCGGAGTCACCTAGTGCAG | 12700 fluorescence intensity (a.u.) |
| TGCTAATTGTATTTCTATATGGACTCTATACTCTACTTCTCGGAGTCACCTAGTGCAG | 8130 fluorescence intensity (a.u.) |
| TACCCCACTCCACCTTCTGTTCTGCACGCACCCACCAATGCGGAGTCACCTAGTGCAG | 9660 fluorescence intensity (a.u.) |
| CCCCGAGGAAGGGAGTACTTGATATCTTTTTCCCATTTAACGGAGTCACCTAGTGCAG | 9050 fluorescence intensity (a.u.) |
| CAATTTGTGGGGTAATATCTTCAACGGCCTCGCTTTCACTCGGAGTCACCTAGTGCAG | 9210 fluorescence intensity (a.u.) |
| ACGAGTCGACCCAAAAAAATCTTCCATCATTTATTTTCTTCGGAGTCACCTAGTGCAG | 9320 fluorescence intensity (a.u.) |
| CGTTTGGTGTAGGCCCAGGCCGTGTACTTGGGCCCATCTGCGGAGTCACCTAGTGCAG | 8440 fluorescence intensity (a.u.) |
| CTATTGGGTGGACGCCGAAGACAGCTTCTTCCCACGCCGCCGGAGTCACCTAGTGCAG | 8220 fluorescence intensity (a.u.) |
| ACTGGGAAATCGGGTTGGGGAGGGAGATGGACAGCTGGGTCGGAGTCACCTAGTGCAG | 9230 fluorescence intensity (a.u.) |
| TCTCGGGCCGAAACGGTCAACGCGTTTACCGGTGGCATAACGGAGTCACCTAGTGCAG | 17500 fluorescence intensity (a.u.) |

For reference, part of the list above:

| Sequence | binding signal |
| --- | --- |
| TTCTTTCCCATGGTGCTTCTTTTTTTCAAGACATTTCTCTCGGAGTCACCTAGTGCAG | 12700 fluorescence intensity (a.u.) |
| TGCTAATTGTATTTCTATATGGACTCTATACTCTACTTCTCGGAGTCACCTAGTGCAG | 8130 fluorescence intensity (a.u.) |
